US20250250308A1, “METHODS AND COMPOSITIONS WITH ANTIFUNGAL ACTIVITY” (priority 2022, published 2025)
Some results were stated once for a whole list of compounds, not compound by compound.

What follows are sequences tested on Cryptococcus neoformans (assay: High-throughput Sytox Orange C. elegans infection assay, C. neoformans). Settings: five days of infection; vs. DMSO control.
Assay type: in vivo
Description: FIGS. 15A-15D: Secondary testing of gain-of-function variants from screen. (FIG. 15A) Survival over time of C. elegans infected with C. albicans and exposed to 1 nM of the indicated peptides. Statistical differences in survival were compared to animals in the exposure condition on the right of the legend (12aa-WT) by Mantel-Cox log rank analysis. An n of 30 animals was used and one representative trial is shown. (FIG. 15B) Percent survival as measured by the high-throughput Sytox Orange assay following five days of infection with C. albicans is shown. Means were calculated with the error bars representing the SEM. Statistical differences in survival were compared to animals in the untreated condition (DMSO) by one-way ANOVA followed by Dunnett's multiple comparison test. An n of 30 animals was used per experimental group. (FIG. 15C) Adhesion of C. albicans to tissue-culture treated plates following incubation with 10 nM of the indicated peptides is shown. A non-adherent strain (Δefg1/Δcph1) was used as a control. Means were calculated with the error bars representing the SEM. Statistical significance in comparison to the DMSO control group was determined using one-way ANOVA followed by Tukey's multiple comparison test. An n of three biological replicates, each with four technical replicates, was used. (FIG. 15D) Percent survival as measured by the high-throughput Sytox Orange assay following five days of infection with C. neoformans is shown. Means were calculated with the error bars representing the SEM. Statistical differences in survival were compared to animals in the untreated condition (DMSO) by one-way ANOVA followed by Dunnett's multiple comparison test. An n of 30 animals was used per experimental group.
Finally, the mutant peptides were tested against a different fungal species, Cryptococcus neoformans.

Row | Sequence | Survival of C. elegans by Sytox Orange assay, C. neoformans
1 | GQLVVWALQC [P2] | significant antifungal activity
2 | VVLALWAVQC [P1] | significant antifungal activity
3 | LVLAFWAVVC [P3] | significant antifungal activity
4 | VQLALWAVQC [P4] | significant antifungal activity
